From US20260098089A1
Results are given in words; binding and its absence hold for the method and conditions named. Binding calls can cover weak binding; strength is not graded here.

B1: 1730C02 (antibody, V domains shown)
VH: EVQLVESGGGLVQLGGSLRLSCAASGLTFNNYAMSWVRQAPGKGLEWVSTISGSGGSTYYADSAKGRFTISRDNSKNTLYLQMNSLRAEDTAVYYCAKGGLLYFGEFHFDYWGQGTLVTVSS
VL: DIQMTQSPSSLSASVGDRVTIICRASQGISNYLAWFQQKPGKAPKSLIYAASSLQSGVPSKFSGSGSGTDFTLTISSLQPEDFATYYCQHYNSYPLTFGGGTKVEIK
B2: 1734F05 (antibody, V domains shown)
VH: EVQLVESGGGLVQPGGSLRLSCAASGFTFSRYAMSWVRQAPGKGLEWVSSISASGATTFYADPVKGRFTISRDNSKKTLYLQMNSLRAEDTAVYYCAKDQDFDILTGYLNWFDPWGQGTLVTVSS
VL: EIVLTQSPATLSLSPGERVILSCRVSQSVSSYLAWYQQKPGQAPRLLIYDTSNRATGIPARFSGSGSGTDFTLTISSLEPEDFAVYYCQQRRNWPLTFGGGTKVEIK
B3: 1741G09 (antibody, V domains shown)
VH: EVQLVESGGGLVKPGGSLRLSCAASGFSFSVAWMSWVRQAPGKGLEWVGRIKRKTDGGTTDYAAPVKGRFIISRDDSIKALYLQMNSLKTEDTAVYYCTTDPLLRYSDWLSHSLMGDVWGQGTTVTVSS
VL: DIQMTQSPSSLSASVGDRVAITCRTSQNINNYLNWYQQKPGKAPKPLIYAASSLQSGVPSRFSGSGSGTDFTLTISTLHPEDFATYYCQQTYSIPLTFGGGTKVEIK

target: Cynomolgus monkey (Macaca fascicularis) CD7 protein (soluble) (cynomolgus monkey (Macaca fascicularis)); assay: SPR

| binding | Binder |
| --- | --- |
| binds | B1 |
| binds | B2 |
| binds | B3 |

target: Cynomolgus monkey (Macaca fascicularis) CD7 protein (soluble) (cynomolgus monkey (Macaca fascicularis)); assay: SPR, soluble CD7

| binding | Binder |
| --- | --- |
| binds | B1 |
| binds | B2 |
| binds | B3 |

target: Cynomolgus monkey (Macaca fascicularis) CD7 protein (soluble) (cynomolgus monkey (Macaca fascicularis)); assay: SPR, mAb captured, single concentration of cynomolgus CD7 protein as analyte (concentration not given)

| binding | Binder |
| --- | --- |
| binds | B1 |
| binds | B2 |
| binds | B3 |
